Reference: paper PMC6449406, “Classification of the human phox homology (PX) domains based on their phosphoinositide binding specificities” (Nature Communications, 2019)
These are yes or no findings as the source states them, for the method shown. Some results given as binding are weak or reduced against the parent protein; the word gives no strength.

What was measured:
[1] = molecular target: SNX15 PX domain (human) (UniProt Q9NRS6); experiment: crystal structure; SNX15 PX domain alone, two crystal forms (form 1: 100 mM Tris pH 8.5, 200 mM LiSO4, 24% PEG4000, 10% glycerol; form 2: 4 M NaCl, 0.1 Tris pH 8.5, 30 mM IP6), 20 °C; both purified
[2] = molecular target: T1, SNX32 PX domain (human) (UniProt Q86XE0); experiment: crystal structure; SNX32 PX domain (12 mg/ml) mixed with the IncE peptide at a 1:2 molar ratio of protein to peptide, 1 h on ice; crystals in 20% PEG 8000, 0.1 M TRIS (pH 8.0), 0.01 M MgCl2, 20 °C; both purified
T1 sequence: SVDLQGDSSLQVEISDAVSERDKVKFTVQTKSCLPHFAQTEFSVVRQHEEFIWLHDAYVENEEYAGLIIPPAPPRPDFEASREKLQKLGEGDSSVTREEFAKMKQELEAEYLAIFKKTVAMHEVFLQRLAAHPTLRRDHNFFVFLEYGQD

B1: SNX15 PX domain (domain or fragment, human)
chain: MSRQAKDDFLRHYTVSDPRTHPKGYTEYKVTAQFISKKDPEDVKEVVVWKRYSDFRKLHGDLAYTHRNLFRRLEEFPAFPRAQVFGRFEASVIEERRKGAEDLLRFTVHIPALNNSPQLKEFFRGG
notes: source: E. coli BL21(DE3)/pLysS, purified (glutathione-Sepharose, thrombin cleavage, size exclusion chromatography); not shown: GST, N-terminal, cleaved
With B1 as the binder, how does the binding [1] read?
The binding was “binds”.

PANGPAVQFFKGKNGSADQVILVTQ [IncE peptide] was tested. Which binding [2] did it give?
Its binding is “binds”.
